Data as given in PubChem BioAssay AID2685 (National Center for Advancing Translational Sciences (NCATS), 2010).
Some of the results follow. Further columns of the screen follow, without active or inactive calls. Most of these compounds were active or inconclusive in the main read-out, so they are no random draw. The note in brackets gives the kind of curve behind each potency; many fits are weak.

Experiment: qHTS Assay for Lipid Storage Modulators in Drosophila S3 Cells;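 for cell number change: cells counted by Cell Tracker Red CMTPX staining in the red channel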
Details: BODIPY lipid droplet fluorescence, 18-24 h; for cell number change: measured here: cell count max response, cells fed with added oleic acid
Method in brief: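 Laser-scanning cytometry quantifies lipid droplet accumulation (500–530 nm total intensity; droplet/cell object ratio) in oleic acid-fed (400 uM added) Drosophila S3 cells treated with a concentration series. 20 uM Triacsin C defined 100% inhibition.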

[1] = measured here: lipid fluorescence (Fed channel) AC50, cells fed with added oleic acid
[2] = measured here: cell number channel AC50, cells fed with added oleic acid

| Structure (SMILES) | cell number change [%] | AC50 [1] | AC50 [2] |
| --- | --- | --- | --- |
| CCn1cc(C(=O)O)c(=O)c2cc(F)c(N3CCN(C(=S)NC(=O)c4ccc(OC)cc4)CC3)cc21 | 10.3 | 6.51 µM [rising, single point] |  |
| Cc1oc2c(C)c(O)ccc2c(=O)c1-c1cnn(-c2ccccc2)c1 | -39.7 | 29.1 µM [falling, single point] | 29.1 µM [falling, single point] |
| CC(C)=C1C(=O)NN(c2ccc(F)c(Cl)c2)C1=O | 37.5 |  | 20.6 µM [rising, single point] |
| CCn1c(=O)c2cc(C(=O)NCCN3CCOCC3)sc2c2ccccc21 | -22.2 | 5.8 µM [falling, partial curve] |  |
| COc1ccccc1NC(=O)CN1CCN(C(=O)C2CCCO2)CC1 (configuration not stated) | -3.04 |  |  |
| C/C(=N\NC(=O)c1ccc(N2CCCC2=O)cc1)c1ccc(O)cc1O | -23.8 |  |  |
| CC(C)CN(C(=O)COC(=O)c1ccc2ccccc2c1)c1c(N)n(Cc2ccccc2)c(=O)[nH]c1=O | 63.9 |  | 3.66 µM [rising, full curve] |
| O=C1Nc2ccc(Br)cc2C1Cc1ccccc1F (configuration not stated) | -33.5 | 29.1 µM [falling, single point] | 7.31 µM [falling, partial curve] |
| CN1CCN(S(=O)(=O)c2ccc(NC(=S)NC(=O)c3ccccc3)cc2)CC1 | 35.5 | 1.84 µM [rising, full curve] | 0.651 µM [rising, full curve] |
| CCSc1ccc([C@@H]2[C@@H]3C(=O)N(CC)C(=O)[C@@H]3[C@]3(C(=O)OC)CCCCN23)cc1OC | -19.9 | 0.58 µM [falling, full curve, poor fit] |  |
| CSC1=NC(C(Cl)(Cl)Cl)N=C(c2ccccc2)N1 (configuration not stated) | 7.82 |  |  |
| O=c1c(Cc2ccc(F)cc2)c(O)ccn1CCCN1CCOCC1 | -27.4 | 35.5 µM [falling, single point] |  |
| COc1ccc([C@H]2CC(=O)C=C(c3cc(C=O)ccc3OC)C2)cc1OC | -8.66 | 4.11 µM [falling, single point] |  |
| O=C(CCN1C(=O)C2C3CCC(C3)C2C1=O)Nc1ccc(Br)cc1 (configuration not stated) | -1.34 | 2.31 µM [rising, single point] | 6.51 µM [rising, partial curve, poor fit] |
| CC1CCN(CC(=O)N2CCCc3c2c(=O)oc2ccc(OCc4ccccc4)cc32)CC1 | 5.18 | 29.1 µM [rising, single point] |  |
| CCOC(=O)c1cn(Cc2ccc(Cl)cc2Cl)c2cc(C)nn2c1=O | -46.6 | 6.51 µM [falling, full curve] | 5.8 µM [falling, full curve] |
| O=C(N1CCN(c2cccc(Cl)c2)CC1)C1(S(=O)(=O)c2ccc(Cl)cc2)CC1 |  | 3.26 µM [rising, single point] |  |
| O=C(O)c1cc(NC(=O)c2ccccc2F)cc(NC(=O)c2ccccc2F)c1 | -19.5 | 0.731 µM [rising, single point] |  |
| CCN1CCCC1CNC(=O)c1ccc2c(c1)N(Cc1ccccc1F)C(=O)c1ccccc1S2(=O)=O (configuration not stated) | 36.6 |  | 29.1 µM [rising, single point] |

An excerpt of these results, with bars between the fields.
Structure (SMILES) | cell number change [%] | AC50 [1] | AC50 [2]
CCn1cc(C(=O)O)c(=O)c2cc(F)c(N3CCN(C(=S)NC(=O)c4ccc(OC)cc4)CC3)cc21 | 10.3 | 6.51 µM [rising, single point] | 
CCn1c(=O)c2cc(C(=O)NCCN3CCOCC3)sc2c2ccccc21 | -22.2 | 5.8 µM [falling, partial curve] | 
C/C(=N\NC(=O)c1ccc(N2CCCC2=O)cc1)c1ccc(O)cc1O | -23.8 |  | 
CC(C)CN(C(=O)COC(=O)c1ccc2ccccc2c1)c1c(N)n(Cc2ccccc2)c(=O)[nH]c1=O | 63.9 |  | 3.66 µM [rising, full curve]
CCSc1ccc([C@@H]2[C@@H]3C(=O)N(CC)C(=O)[C@@H]3[C@]3(C(=O)OC)CCCCN23)cc1OC | -19.9 | 0.58 µM [falling, full curve, poor fit] | 
COc1ccc([C@H]2CC(=O)C=C(c3cc(C=O)ccc3OC)C2)cc1OC | -8.66 | 4.11 µM [falling, single point] | 
O=C(CCN1C(=O)C2C3CCC(C3)C2C1=O)Nc1ccc(Br)cc1 (configuration not stated) | -1.34 | 2.31 µM [rising, single point] | 6.51 µM [rising, partial curve, poor fit]
CC1CCN(CC(=O)N2CCCc3c2c(=O)oc2ccc(OCc4ccccc4)cc32)CC1 | 5.18 | 29.1 µM [rising, single point] | 
CCOC(=O)c1cn(Cc2ccc(Cl)cc2Cl)c2cc(C)nn2c1=O | -46.6 | 6.51 µM [falling, full curve] | 5.8 µM [falling, full curve]
O=C(O)c1cc(NC(=O)c2ccccc2F)cc(NC(=O)c2ccccc2F)c1 | -19.5 | 0.731 µM [rising, single point] | 

The list continues:

| Structure (SMILES) | cell number change [%] | AC50 [1] | AC50 [2] |
| --- | --- | --- | --- |
| O=S1(=O)C=CC(Nc2cccc(Cl)c2)C1 (configuration not stated) | -12.6 | 16.4 µM [falling, single point] |  |
| CSc1ccccc1OCc1cc(C(=O)N2CCC(c3ccncc3)CC2)no1 | -35.2 | 8.2 µM [falling, partial curve] | 29.1 µM [falling, single point] |
| CC1c2cc3c(cc2CCN1CC(=O)Nc1ccccc1)OCCCO3 (configuration not stated) | -24.6 | 20.6 µM [falling, single point] |  |
| COCC(C)OC(=O)/C(C#N)=C\c1coc2ccc(C)cc2c1=O (configuration not stated) | 3.7 | 0.731 µM [falling, full curve] |  |
| Cc1onc(-c2c(Cl)cccc2Cl)c1C(=O)N(C)Cc1ccccc1 | 36.8 | 6.51 µM [falling, single point] | 0.146 µM [rising, full curve, poor fit] |
| COc1ccc(S(=O)(=O)n2nc(-c3ccc(Cl)cc3)cc2N)cc1OC | 3.43 | 0.517 µM [rising, full curve] |  |
| C=C(C)c1nc(N)nc(N)n1 | -13.6 | 3.66 µM [falling, full curve] | 0.326 µM [falling, full curve, poor fit] |
| COC(=O)/C=C1/N/C(=N\c2nc(C)cc(C)n2)N(c2ccccc2)C1=O |  |  | 6.51 µM [rising, single point] |
| CC1CCCC(C)N1CC(O)COCc1ccccc1 (configuration not stated) | 22.9 | 0.651 µM [falling, single point] |  |
| Cc1ccc(S(=O)(=O)Nc2cc(C(F)(F)F)ccc2N2CCOCC2)c(C)c1 | 31 | 14.6 µM [rising, partial curve] | 18.4 µM [rising, single point] |
| O=C(CSCc1c(Cl)cccc1Cl)Nc1ccccc1-c1ccccc1 | -5.94 |  |  |
| Cc1ccc(S(=O)(=O)N2CCOCCOCCOCCOCCOCC2)cc1 | 3.81 | 0.164 µM [falling, full curve, poor fit] |  |
| Cc1cccc(NC(=O)c2cc(NC(=O)C3CCCCC3C(=O)O)ccc2Cl)n1 (configuration not stated) | 6.61 | 29.1 µM [rising, single point] |  |
| Cc1ccc(Cn2c(NC(=O)c3ccco3)nc3ccccc32)cc1 | -44.8 | 18.4 µM [falling, single point] | 32.6 µM [falling, single point] |
| Nc1sccc1C(=O)c1ccc(Cl)cc1 | 162 | 6.51 µM [rising, single point] | 18.4 µM [rising, single point] |
| COCCCNC(=O)COC(=O)c1ccc(-c2nc3ccccc3s2)s1 | -10.7 |  |  |
| COc1ccc(S(=O)(=O)N2CCOCC2)cc1NC(=O)c1cc(C)oc1C | -3.75 |  |  |
| Cc1ccc(SCC(=O)Nc2ccc(-c3nnc(-c4ccco4)o3)cc2)cc1 | -19.3 | 29.1 µM [falling, single point] |  |
